Drawing on doi:10.1101/190751, this text covers binding for three substances.

Common to all, as to test: affinity purification with mass spectrometry
Assay [1] addresses Myc-tagged TAC60 (T. brucei) (UniProt Q57WR0).
The target in assay [2] is in situ HA-tagged TAC42 (T. brucei) (UniProt Q57YB6).
Assay [3] has as its target in situ HA-tagged TAC40 (T. brucei) (UniProt Q581S0).

No constants are given. Whether binding was seen depends on the method and setting. In cells and extracts the contact can be indirect. These calls come from enrichment with a bait or labelling near it, and not all partners need be listed.

Turning to TAC40 (from UniProt Q581S0), the binding result in assay [1] and in assay [2] was “binds” each time.

In the case of TAC42 (from UniProt Q57YB6), the binding result in assay [1] is given as “binds”.

On to TAC60 (from UniProt Q57WR0), for which the binding entry in assay [3] and in assay [2] was “binds” throughout.
